Measurements taken from US10744099B2, “Radiation sterilization of hypercompresed polymer dosage forms” (priority 2017, dated 2020).
At least one structure is not confirmed: it was looked up by name or label, or the drawing left a doubt.

Assay: HPLC analysis of dexamethasone related substances (RS) after radiation sterilization of hypercompressed PLGA pellets
Format: physicochemical
Conditions: for % Related Substances (RS), 1.26RRT: e-Beam, peak at 1.26RRT

In the case of `C[C@@H]1C[C@H]2[C@@H]3CCC4=CC(=O)C=C[C@]4(C)[C@@]3(F)[C@@H](O)C[C@]2(C)[C@@]1(O)C(=O)CO` [Dexamethasone, dexamethasone], the “% Related Substances (RS), 1.26RRT” value (12½ kGy × 2 passes) is reported as 0.23%, the “% Related Substances (RS), 1.26RRT” value (25 kGy × 1 pass) is reported as 0.22% and the “% Related Substances (RS)” value (no irradiation) is reported as 0.23%. For the same molecule, the “% Related Substances (RS)” value (γ irradiation, 25 kGy × 1 pass) was 0.52%.
